Reference: patent US20110052587A1
Results are given in words; binding and its absence hold for the method and conditions named. Some results given as binding are weak or reduced against the parent protein; the word gives no strength.

Amino acid sequences for entries named in this document (tags omitted). A change or cut given only in a name is not applied to a line headed by its entry.
UniProt P10747: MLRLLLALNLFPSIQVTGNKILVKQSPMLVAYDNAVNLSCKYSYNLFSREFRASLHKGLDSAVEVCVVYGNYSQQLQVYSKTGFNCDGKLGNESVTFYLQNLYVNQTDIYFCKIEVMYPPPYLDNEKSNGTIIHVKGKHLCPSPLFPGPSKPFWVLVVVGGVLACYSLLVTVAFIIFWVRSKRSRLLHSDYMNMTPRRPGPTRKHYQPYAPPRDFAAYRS

Columns and labels:
[1] = biological target: human CD28 (human) (UniProt P10747); assay: binding tests of FIG. 5
[2] = biological target: human CD28 (human) (UniProt P10747); assay: hybridoma screen on transfected L929 cells
[3] = biological target: human CD28 (human) (UniProt P10747); assay: binding to cells expressing the construct, FIG. 5
[4] = biological target: human CD28 (human) (UniProt P10747); assay: flow cytometry, titration on human PBMC gated on CD4 T lymphocytes, FIG. 4a

Measured: binding

B1: mAb 9D7 (antibody, V domains shown)
VH: DVQLQESGPGLVKPSQSLSLTCTVTGYSITSDYAWNWIRQFPGNKLEWMGYIRYSGSTSYNPSLKSRISITRDTSKNQFFLQLNSVTTEDTATYYCARDWPRPSYWYFDVWGAGTTVTVSS
VL: DIQTTQTTSSLSASLGDRVTISCRAGQDISNYLNWYQQKPDGTVKLLIYYTSRLHSGVPSRFSGSGSGTDYSLTISNLEQEDIATYFCQQGHTLPWTFGGGTKLEIK
binds: all assays above
